Source: PubChem BioAssay AID743121 (NCATS, 2013)

Screen: 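Partners whose loss is lethal together with topoisomerase I blockade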 (primary screen)
Cells: MDA-MB-231 cells, a human breast cancer line
Knock-down reagent: single siRNA against human genes, 20 nM siRNA (0.8 pmol per well)
Duration: 120 h (drug added 48 h after transfection, read 72 h later)
Challenge: camptothecin 20 nM (about EC30) for 72 h; vehicle 0.1% DMSO in parallel plates
Read-out: 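Cell viability by ATP luminescence (CellTiter-Glo) as % of non-targeting siRNA wells, and the log2 ratio of viability without drug over viability with camptothecin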
Direction: log2 vehicle/camptothecin viability: higher = stronger sensitisation to camptothecin; viability with camptothecin and viability without drug: higher = more viable cells
Rule for the call: 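Each gene scored by redundant siRNA activity (RSA) over its individual siRNA ratios; a gene is called active at p < 0.001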
Here is one part, drawn at random, of about 26,000 reagents. 167 of all reagents (0.63%) were called active. 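Calls are per gene from RSA p-values that are not deposited; an individual active-marked siRNA can sensitise only weakly.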 Unmarked entries are inactive. The numbers tell different reagents against one gene apart. No sequences are given here.

gene | reagent | log2 vehicle/camptothecin viability | viability with camptothecin (% of control) | viability without drug (% of control)
ING3 (inhibitor of growth family member 3) | 1 | -0.325 | 116 | 92.9
ING3 (inhibitor of growth family member 3) | 2 | -0.34 | 28.3 | 22.3
ING3 (inhibitor of growth family member 3) | 3 | -0.401 | 51.3 | 38.9
ING3 (inhibitor of growth family member 3) | 4 | -0.427 | 33.3 | 24.7
MORC4 (MORC family CW-type zinc finger 4) | 1 | -0.224 | 70.1 | 60
MORC4 (MORC family CW-type zinc finger 4) | 2 | -0.161 | 99.8 | 89.3
MORC4 (MORC family CW-type zinc finger 4) | 3 | -0.0487 | 61.7 | 59.6
MORC4 (MORC family CW-type zinc finger 4) | 4 | 0.598 | 57 | 86.2
TLR5 (toll like receptor 5) | 1 | -0.107 | 103 | 95.9
TLR5 (toll like receptor 5) | 2 | -0.196 | 93 | 81.2
TLR5 (toll like receptor 5) | 3 | -0.195 | 49.1 | 42.9
TLR5 (toll like receptor 5) | 4 | 0.292 | 41.8 | 51.2
FNTA (farnesyltransferase, CAAX box, subunit alpha) | 1 | -0.43 | 74.2 | 55.1
FNTA (farnesyltransferase, CAAX box, subunit alpha) | 2 | -0.602 | 73.4 | 48.3
FNTA (farnesyltransferase, CAAX box, subunit alpha) | 3 | -0.353 | 95.3 | 74.6
FNTA (farnesyltransferase, CAAX box, subunit alpha) | 4 | -0.646 | 65.4 | 41.8
INSIG1 (insulin induced gene 1) | 1 | -0.228 | 86.7 | 74
INSIG1 (insulin induced gene 1) | 2 | -0.487 | 83.1 | 59.3
INSIG1 (insulin induced gene 1) | 3 | 0.854 | 37.9 | 68.6
INSIG1 (insulin induced gene 1) | 4 | -0.122 | 117 | 107
GPI (glucose-6-phosphate isomerase) | 1 | -0.245 | 60.7 | 51.2
GPI (glucose-6-phosphate isomerase) | 2 | -0.394 | 59.6 | 45.4
GPI (glucose-6-phosphate isomerase) | 3 | -0.61 | 114 | 75
GPI (glucose-6-phosphate isomerase) | 4 | -0.338 | 67.8 | 53.6
RAB40B (RAB40B, member RAS oncogene family) | 1 | -0.436 | 56.1 | 41.5
RAB40B (RAB40B, member RAS oncogene family) | 2 | 0.0352 | 56.2 | 57.6
RAB40B (RAB40B, member RAS oncogene family) | 3 | -0.141 | 111 | 101
RAB40B (RAB40B, member RAS oncogene family) | 4 | -0.478 | 85.2 | 61.2

2 consecutive records already listed, for reference:
gene | reagent | log2 vehicle/camptothecin viability | viability with camptothecin (% of control) | viability without drug (% of control)
GPI (glucose-6-phosphate isomerase) | 3 | -0.61 | 114 | 75
GPI (glucose-6-phosphate isomerase) | 4 | -0.338 | 67.8 | 53.6
